# Laboratory results reported in PubChem BioAssay AID2685 (National Center for Advancing Translational Sciences (NCATS), 2010).
# Some of the results follow. These are further read-outs of the screen, such as a control signal, another cell line or another target. No call is given for them. Most of these compounds were active or inconclusive in the main read-out, so they are no random draw. Words in brackets tell the shape of the fitted curve; partial curves, single points and poor fits give uncertain potencies.
# Assay: qHTS Assay for Lipid Storage Modulators in Drosophila S3 Cells;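 as to cell number change: cells counted by Cell Tracker Red CMTPX staining in the red channel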
# Details: BODIPY lipid droplet fluorescence, 18-24 h; for cell number change: measured here: cell count max response, cells fed with added oleic acid
# Outline: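 Drosophila S3 cells got compounds at several concentrations plus oleic acid (400 uM solution). Laser-scanning cytometry with 488 nm excitation read lipid droplets at 500-530 nm and cells at 575-640 nm. Percent activity was relative to 20 uM Triacsin C.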
# [1] = measured here: lipid fluorescence (Fed channel) AC50, cells fed with added oleic acid
# [2] = measured here: cell number channel AC50, cells fed with added oleic acid
Compound,cell number change [%],AC50 [1],AC50 [2]
CC(=O)c1ccc(C(=O)N2CCCC(Nc3ccc(C(C)C)cc3)C2)s1 (stereo not given),-21,,
C/C=C/c1ccc(OCC(=O)OCC)c(OC)c1,-27.6,"29.1 µM [falling, single point]",
CCCc1nnc(SCc2ccc(C(=O)OC)o2)n1N,10,"0.164 µM [falling, full curve, poor fit]",
COCC(=O)Nc1ccc2c(c1)OCC(=O)N2Cc1ccccc1F,7.38,"0.146 µM [rising, full curve, poor fit]",
CCOC(=O)c1ccc(NS(=O)(=O)c2cccc3nsnc23)cc1,104,,
CN(C)c1cc[n+](CC(=O)Nc2ccc(Cl)c([N+](=O)[O-])c2)cc1,7.04,,
COc1ccc(C(CNC(=O)c2ccc(S(=O)(=O)Nc3ccc(F)cc3)cc2)N(C)C)cc1 (stereo not given),13.7,"29.1 µM [rising, single point]",
COc1cc(NC(=O)c2cnc(N)o2)cc(C(=O)Nc2cccc(C(F)(F)F)c2)c1,-59.6,"29.1 µM [falling, single point]","29.1 µM [falling, single point]"
Cc1ccccc1NC(=O)C1=CC=CN2CCS(=O)(=O)N=C12,6.41,"0.116 µM [falling, full curve, poor fit]",
c1coc(-c2nnc3sc(Cc4cccs4)nn23)c1,1.8,"32.6 µM [rising, single point]","0.651 µM [falling, single point]"
c1ccc(-n2c(-c3ccncc3)nnc2-c2ccco2)cc1,9.3,"0.651 µM [rising, full curve, poor fit]","2.91 µM [rising, single point]"
Cc1ccc(Cn2nnc3c(=O)[nH]c(C4CCCN(C(=O)c5ccco5)C4)nc32)cc1 (stereo not given),-1.68,,
O=C(Nc1cscc1S(=O)(=O)c1ccc(Cl)cc1)c1ccccc1Cl,-19.2,,
CC1CCCCN1C(=O)COC(=O)/C=C/c1ccc2ccccc2n1 (stereo not given),24.3,"25.9 µM [rising, single point]",
CN(CCc1ccccn1)C(=S)Nc1cccc(S(=O)(=O)N(C)C)c1,5.13,"29.1 µM [falling, single point]",
Cc1c(O)c2c3c(cccc3c1O)C(=O)N(c1ccccc1)C2=O,-43.9,"32.6 µM [falling, partial curve, poor fit]","29.1 µM [falling, single point]"

# Fetched one by one from above, 2 records:
Compound,cell number change [%],AC50 [1],AC50 [2]
Cc1ccc(Cn2nnc3c(=O)[nH]c(C4CCCN(C(=O)c5ccco5)C4)nc32)cc1 (stereo not given),-1.68,,
CCCc1nnc(SCc2ccc(C(=O)OC)o2)n1N,10,"0.164 µM [falling, full curve, poor fit]",

# Next records follow:

Compound,cell number change [%],AC50 [1],AC50 [2]
CCOc1c(Br)cc(C(=O)N2CCCN(C)CC2)cc1OC,7.04,,"0.164 µM [rising, full curve, poor fit]"
COC(=O)c1ccc(NC(=O)C2CCCN(S(=O)(=O)c3cnc[nH]3)C2)cc1 (stereo not given),4.8,"2.31 µM [rising, single point]",
O=C(Cc1ccccc1)Nc1ccc(NC(=O)c2cccs2)cc1,19.6,,"0.259 µM [rising, partial curve, poor fit]"
COCc1nc(-c2ccc(-c3ccc(C)cc3)nc2OC)no1,-7.02,,
O=C(CCCCN1CCCCC1)c1ccc2c(c1)Cc1ccccc1-2,21.6,,
Cc1ccc(C2CC(=O)NC(SCC(=O)Nc3nccs3)=C2C#N)cc1 (stereo not given),115,"0.103 µM [rising, full curve, poor fit]","0.13 µM [rising, full curve, poor fit]"
O=C(NCC1CCCO1)C1CCN(S(=O)(=O)N2CCCC2)CC1 (stereo not given),85,"29.1 µM [rising, partial curve]","29.1 µM [rising, single point]"
O=C(NCCc1ccccc1)/C(=C\c1cccc([N+](=O)[O-])c1)NC(=O)c1ccco1,7.33,,
Cc1ccc2c(c1)N(CC(=O)N1CCCCCC1)C(=O)CO2,3.51,,
COc1ccc(NS(=O)(=O)c2cccc(C(=O)NCCCN3CCOCC3)c2)cc1,35,,"14.6 µM [rising, single point]"
CCOc1cc(S(=O)(=O)Nc2ccc(Cl)cn2)ccc1F,-3.57,,
Cc1cc(NC(=O)CSc2nnc(-c3ccncc3)n2Cc2ccccc2)n(-c2ccccc2)n1,21.2,"6.51 µM [rising, full curve, poor fit]",
CC(C)Cc1nc2oc3c(NCc4cccnc4)ncnc3c2c2c1CCC2,30.5,,"29.1 µM [rising, single point]"
CC(C)C(NC(=O)Cc1ccccc1)C(=O)N1CCN(c2cccc(Cl)c2)CC1 (stereo not given),-1.1,"29.1 µM [rising, single point]",
Cc1ccc(C(=O)COC(=O)c2nc3nccc(C)n3n2)c(C)c1,23.9,"0.00461 µM [rising, full curve, poor fit]",
CCCNC(=O)CCn1cc(-c2ccc(OC)cc2)nc1CCN,-2.64,"29.1 µM [rising, single point]",
